Assay results published in patent publication US11859248B2, “Nucleic acid modification and identification method” (IMBA—INSTITUT FÜR MOLEKULARE BIOTECHNOLOGIE GMBH, priority 2017, dated 2024).

Assay: Absorption measurement of 4-thiouracil alkylation by iodoacetamide
Type: physicochemical
Settings: 10 mM IAA; 50 mM NaPO4, pH8; 50% DMSO; 50° C.; 15 min

## O=c1[nH]ccc(=S)[nH]1 [4-thiouracil]
  alkylation rate: at least 98%
  decrease of absorption at 335 nm compared to untreated: 50 fold
